PubChem BioAssay AID1159584 – Peter MacCallum Cancer Centre – 2016
The whole screen tested about 18,000 reagents; this is an unselected part. Not stated in the record: the amount of reagent, the time to read-out.

Test: 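Genes whose loss is lethal only together with E-cadherin loss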 (primary screen)
Cells: human MCF10A breast epithelial cells, parental and CDH1-null
Knock-down reagent: siRNA against human genes
Read-out: 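ATP luminescence (CellTiter-Glo) viability per line relative to mean mock wells over all plates, and the ratio of CDH1-null to parental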
Scale: CDH1-null / parental viability ratio: higher = CDH1-null cells survive relatively better than parental; CDH1-null viability vs mock: higher = more viable CDH1-null cells; parental viability vs mock: higher = more viable parental cells

gene knocked down,CDH1-null / parental viability ratio,CDH1-null viability vs mock (fraction of mock),parental viability vs mock (fraction of mock)
KDM4C (GeneID 23081),0.88,0.68,0.77
MED11 (GeneID 400569),1,0.7,0.7
GBF1 (GeneID 8729),1.04,0.84,0.81
TLR5 (GeneID 7100),1.08,1.15,1.06
NOX1 (GeneID 27035),1.14,1.03,0.9
SULT1C4 (GeneID 27233),1.15,0.9,0.78
HSD17B6 (GeneID 8630),0.9,0.8,0.89
PCMTD2 (GeneID 55251),1.03,1.05,1.02
ZNF608 (GeneID 57507),1.37,0.82,0.6
ZBTB16 (GeneID 7704),1,0.8,0.8
GFRA1 (GeneID 2674),0.95,0.86,0.91
COPZ1 (GeneID 22818),1.17,0.34,0.29
TBX18 (GeneID 9096),0.95,0.74,0.78
PROSER1 (GeneID 80209),1.04,0.5,0.48
UBXN2A (GeneID 165324),0.88,0.69,0.78
ZNF611 (GeneID 81856),1.14,0.96,0.84
RPL36A (GeneID 6173),0.92,0.48,0.52
ANKH (GeneID 56172),0.87,0.8,0.92
SPICE1 (GeneID 152185),1.06,0.72,0.68
CDV3 (GeneID 55573),0.98,0.94,0.96
INSM1 (GeneID 3642),0.95,0.54,0.57
SLC25A12 (GeneID 8604),1.11,0.94,0.85
CD164L2 (GeneID 388611),1,0.86,0.86
BICDL1 (GeneID 92558),1.15,0.55,0.48
GOPC (GeneID 57120),1.05,0.78,0.74
LUZP1 (GeneID 7798),1.06,0.68,0.64
LIPN (GeneID 643418),0.9,0.66,0.73
TMEM177 (GeneID 80775),0.54,0.58,1.08
